Reference: US20170037088A1 (published 2017)
These are yes or no findings as the source states them, for the method shown. Some results given as binding are weak or reduced against the parent protein; the word gives no strength. Tags and fused reporters may be left off the sequences shown.

Chains of the proteins cited; added tags and fusions are not shown. Residues count along the entry.
UniProt P47871, residues 26-477: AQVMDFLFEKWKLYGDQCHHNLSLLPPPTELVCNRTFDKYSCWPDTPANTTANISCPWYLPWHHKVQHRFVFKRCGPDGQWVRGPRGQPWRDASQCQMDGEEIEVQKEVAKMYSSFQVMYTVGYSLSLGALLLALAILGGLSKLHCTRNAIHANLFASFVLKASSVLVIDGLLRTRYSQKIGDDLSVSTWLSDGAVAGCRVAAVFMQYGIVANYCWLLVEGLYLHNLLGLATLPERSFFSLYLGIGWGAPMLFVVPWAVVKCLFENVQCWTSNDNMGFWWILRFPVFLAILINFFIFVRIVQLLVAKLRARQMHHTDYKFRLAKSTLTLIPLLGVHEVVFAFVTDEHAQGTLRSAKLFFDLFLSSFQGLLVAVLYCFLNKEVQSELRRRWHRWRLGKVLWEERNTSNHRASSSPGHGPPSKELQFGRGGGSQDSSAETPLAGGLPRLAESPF

Target: glucagon receptor (UniProt P47871 26-477, limits assumed)
Test: told in the description with reference to Example 31 (cell calcium flux assay)

binding: binds
B1: glucagon-Y288 (other)
chain: HSQGTFTSDYSKYLDSRRAQDFVQWLMNTGEGSGEGSEGEGSEGSGEGEGSEGSGEGEGGSEGSEGEGGSEGSEGEGGSEGSEGEGSGEGSEGEGGSEGSEGEGSGEGSEGEGSEGGSEGEGGSEGSEGEGSGEGSEGEGGEGGSEGEGSEGSGEGEGSGEGSEGEGSEGSGEGEGSGEGSEGEGSEGSGEGEGSEGSGEGEGGSEGSEGEGSEGSGEGEGGEGSGEGEGSGEGSEGEGGGEGSEGEGSGEGGEGEGSEGGSEGEGGSEGGEGEGSEGSGEGEGSEGGSEGEGSEGGSEGEGSEGSGEGEGSEGSGE
